Patent publication US11806332B2, “Compositions and methods for inhibition of SARS-CoV-2 viral infections” (priority 2020, dated 2023)
Like-named read-outs stand apart in the source and are kept apart here.

Molecular target: M^Pro (Severe acute respiratory syndrome coronavirus 2, UniProt P0DTD1)
Assay: biochemical
Settings: for Hill Slope: Hill coefficient of IC50 curve, four-parameter fit

Row | SMILES | IC50 [µM] | Hill Slope | IC50 (read-out: IC50) [µM]
1 | CC(C)(C)c1ccc(C(=O)CCCN2CCC(OC(c3ccccc3)c3ccccc3)CC2)cc1 [Ebastine] | < 100 | 1.5 ± 0.2 | 57 ± 12
2 | Clc1ccc(CO/N=C(\Cn2ccnc2)c2ccc(Cl)cc2Cl)c(Cl)c1 [Oxiconazole] | < 100 | 3.8 ± 0.4 | 99 ± 6
